Data taken from the supplement of paper PMC10849652.
This is one part of the list.

The chains behind the UniProt entries cited, without tags or fusion partners. Where a name states a change or a piece, a line headed by the entry shows the natural chain unless it says otherwise.
UniProt Q13546: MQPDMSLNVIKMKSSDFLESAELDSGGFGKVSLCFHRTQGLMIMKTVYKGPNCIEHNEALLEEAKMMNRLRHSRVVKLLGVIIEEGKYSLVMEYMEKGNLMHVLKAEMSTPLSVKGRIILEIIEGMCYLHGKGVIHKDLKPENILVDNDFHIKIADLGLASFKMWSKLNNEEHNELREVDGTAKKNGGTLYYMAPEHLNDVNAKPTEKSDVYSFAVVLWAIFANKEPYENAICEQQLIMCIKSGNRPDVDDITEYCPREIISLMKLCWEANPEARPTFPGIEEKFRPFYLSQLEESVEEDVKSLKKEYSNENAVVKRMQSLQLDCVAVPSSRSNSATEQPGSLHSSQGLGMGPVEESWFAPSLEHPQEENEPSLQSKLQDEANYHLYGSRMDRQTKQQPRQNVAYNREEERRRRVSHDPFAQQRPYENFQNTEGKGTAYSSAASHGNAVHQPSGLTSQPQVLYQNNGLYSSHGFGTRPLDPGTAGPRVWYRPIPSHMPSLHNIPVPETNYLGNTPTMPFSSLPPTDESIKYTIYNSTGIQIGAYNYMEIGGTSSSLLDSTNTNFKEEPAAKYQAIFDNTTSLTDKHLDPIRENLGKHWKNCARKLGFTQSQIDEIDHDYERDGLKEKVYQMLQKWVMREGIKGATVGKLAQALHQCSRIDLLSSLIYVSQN
UniProt Q9BV68: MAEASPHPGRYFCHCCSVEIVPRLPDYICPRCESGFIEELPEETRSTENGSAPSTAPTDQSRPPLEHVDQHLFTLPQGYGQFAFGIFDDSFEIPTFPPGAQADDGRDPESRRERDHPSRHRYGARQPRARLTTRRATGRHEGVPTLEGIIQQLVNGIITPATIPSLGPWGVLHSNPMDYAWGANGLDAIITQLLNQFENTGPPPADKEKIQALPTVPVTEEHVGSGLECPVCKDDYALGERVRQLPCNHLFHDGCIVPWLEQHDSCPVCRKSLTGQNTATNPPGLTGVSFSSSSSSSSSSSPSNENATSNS
UniProt P52758: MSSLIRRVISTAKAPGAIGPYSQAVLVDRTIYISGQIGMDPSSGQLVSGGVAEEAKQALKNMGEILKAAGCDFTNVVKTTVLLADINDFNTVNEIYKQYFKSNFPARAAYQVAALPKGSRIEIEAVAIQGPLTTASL
UniProt Q9NVN3: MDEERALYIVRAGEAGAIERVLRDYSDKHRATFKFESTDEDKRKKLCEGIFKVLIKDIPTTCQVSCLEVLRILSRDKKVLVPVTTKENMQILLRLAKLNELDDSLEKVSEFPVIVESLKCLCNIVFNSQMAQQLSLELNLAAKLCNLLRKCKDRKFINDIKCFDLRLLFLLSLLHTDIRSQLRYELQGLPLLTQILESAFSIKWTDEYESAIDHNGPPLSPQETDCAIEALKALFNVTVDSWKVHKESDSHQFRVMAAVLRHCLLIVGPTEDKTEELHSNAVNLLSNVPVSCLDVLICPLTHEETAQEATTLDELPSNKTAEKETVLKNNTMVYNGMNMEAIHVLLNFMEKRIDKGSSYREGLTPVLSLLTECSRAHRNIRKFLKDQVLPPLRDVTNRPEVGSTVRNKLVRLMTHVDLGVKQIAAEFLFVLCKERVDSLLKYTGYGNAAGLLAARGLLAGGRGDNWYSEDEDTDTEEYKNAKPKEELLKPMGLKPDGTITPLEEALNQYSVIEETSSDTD
UniProt Q96AT9: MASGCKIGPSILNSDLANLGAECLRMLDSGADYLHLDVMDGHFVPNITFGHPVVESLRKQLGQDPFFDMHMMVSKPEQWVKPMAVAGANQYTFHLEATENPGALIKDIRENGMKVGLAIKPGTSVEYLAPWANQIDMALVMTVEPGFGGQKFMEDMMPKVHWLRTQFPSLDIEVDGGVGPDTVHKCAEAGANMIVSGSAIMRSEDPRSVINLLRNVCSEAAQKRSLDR
UniProt Q96NA2: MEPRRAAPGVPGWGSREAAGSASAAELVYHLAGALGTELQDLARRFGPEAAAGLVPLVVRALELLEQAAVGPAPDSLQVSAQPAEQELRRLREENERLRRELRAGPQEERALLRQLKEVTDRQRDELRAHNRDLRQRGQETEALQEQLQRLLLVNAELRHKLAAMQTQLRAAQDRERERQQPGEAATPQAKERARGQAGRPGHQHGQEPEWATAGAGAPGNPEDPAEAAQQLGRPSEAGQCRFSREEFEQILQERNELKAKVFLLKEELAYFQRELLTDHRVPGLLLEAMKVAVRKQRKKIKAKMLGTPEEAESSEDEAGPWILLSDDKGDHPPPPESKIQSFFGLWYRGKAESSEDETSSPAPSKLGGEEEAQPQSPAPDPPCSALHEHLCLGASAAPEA
UniProt Q5VTR2, whole entry, looked up: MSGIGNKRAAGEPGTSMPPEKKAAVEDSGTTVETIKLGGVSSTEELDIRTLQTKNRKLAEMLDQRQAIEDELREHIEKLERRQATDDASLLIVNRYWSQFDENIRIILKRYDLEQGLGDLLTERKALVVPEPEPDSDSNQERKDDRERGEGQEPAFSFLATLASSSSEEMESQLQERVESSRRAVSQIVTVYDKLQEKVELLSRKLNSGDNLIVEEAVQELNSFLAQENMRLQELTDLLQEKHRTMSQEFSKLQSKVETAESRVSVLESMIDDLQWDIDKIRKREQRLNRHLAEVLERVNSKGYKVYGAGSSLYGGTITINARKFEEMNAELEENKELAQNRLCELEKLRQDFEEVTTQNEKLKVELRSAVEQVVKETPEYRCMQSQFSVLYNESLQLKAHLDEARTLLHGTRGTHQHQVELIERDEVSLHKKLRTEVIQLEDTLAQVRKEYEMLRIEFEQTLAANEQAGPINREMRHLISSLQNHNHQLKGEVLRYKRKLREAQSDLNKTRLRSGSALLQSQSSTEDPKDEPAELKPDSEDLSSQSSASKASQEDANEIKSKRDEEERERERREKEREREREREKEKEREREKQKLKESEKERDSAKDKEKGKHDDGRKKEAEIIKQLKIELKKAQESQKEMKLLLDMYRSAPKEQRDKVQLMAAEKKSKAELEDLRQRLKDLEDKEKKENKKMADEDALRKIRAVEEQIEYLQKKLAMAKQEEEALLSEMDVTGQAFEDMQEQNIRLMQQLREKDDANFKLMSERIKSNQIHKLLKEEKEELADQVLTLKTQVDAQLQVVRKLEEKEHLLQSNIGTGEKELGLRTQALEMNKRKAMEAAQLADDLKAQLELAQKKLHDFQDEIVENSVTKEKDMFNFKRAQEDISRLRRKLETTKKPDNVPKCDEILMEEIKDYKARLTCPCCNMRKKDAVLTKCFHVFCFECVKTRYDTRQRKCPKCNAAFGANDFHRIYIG
UniProt Q8ND24: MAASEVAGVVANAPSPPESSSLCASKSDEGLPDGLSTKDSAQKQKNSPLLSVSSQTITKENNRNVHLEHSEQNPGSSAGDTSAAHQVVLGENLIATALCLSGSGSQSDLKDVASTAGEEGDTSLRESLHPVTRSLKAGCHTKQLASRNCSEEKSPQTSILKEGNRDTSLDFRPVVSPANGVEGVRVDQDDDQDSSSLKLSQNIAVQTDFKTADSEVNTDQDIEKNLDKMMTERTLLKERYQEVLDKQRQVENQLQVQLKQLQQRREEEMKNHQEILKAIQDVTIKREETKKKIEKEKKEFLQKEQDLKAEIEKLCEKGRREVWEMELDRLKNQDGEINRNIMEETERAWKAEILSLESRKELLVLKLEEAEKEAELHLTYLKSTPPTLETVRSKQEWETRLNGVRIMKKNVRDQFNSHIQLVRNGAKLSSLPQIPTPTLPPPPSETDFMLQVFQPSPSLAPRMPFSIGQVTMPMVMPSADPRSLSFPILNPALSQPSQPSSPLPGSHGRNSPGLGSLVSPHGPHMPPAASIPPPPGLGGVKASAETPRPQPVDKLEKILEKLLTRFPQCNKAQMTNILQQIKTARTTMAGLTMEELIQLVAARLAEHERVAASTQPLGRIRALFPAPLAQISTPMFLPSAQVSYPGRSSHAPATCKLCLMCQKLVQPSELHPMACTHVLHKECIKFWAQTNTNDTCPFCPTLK
UniProt Q96EP0: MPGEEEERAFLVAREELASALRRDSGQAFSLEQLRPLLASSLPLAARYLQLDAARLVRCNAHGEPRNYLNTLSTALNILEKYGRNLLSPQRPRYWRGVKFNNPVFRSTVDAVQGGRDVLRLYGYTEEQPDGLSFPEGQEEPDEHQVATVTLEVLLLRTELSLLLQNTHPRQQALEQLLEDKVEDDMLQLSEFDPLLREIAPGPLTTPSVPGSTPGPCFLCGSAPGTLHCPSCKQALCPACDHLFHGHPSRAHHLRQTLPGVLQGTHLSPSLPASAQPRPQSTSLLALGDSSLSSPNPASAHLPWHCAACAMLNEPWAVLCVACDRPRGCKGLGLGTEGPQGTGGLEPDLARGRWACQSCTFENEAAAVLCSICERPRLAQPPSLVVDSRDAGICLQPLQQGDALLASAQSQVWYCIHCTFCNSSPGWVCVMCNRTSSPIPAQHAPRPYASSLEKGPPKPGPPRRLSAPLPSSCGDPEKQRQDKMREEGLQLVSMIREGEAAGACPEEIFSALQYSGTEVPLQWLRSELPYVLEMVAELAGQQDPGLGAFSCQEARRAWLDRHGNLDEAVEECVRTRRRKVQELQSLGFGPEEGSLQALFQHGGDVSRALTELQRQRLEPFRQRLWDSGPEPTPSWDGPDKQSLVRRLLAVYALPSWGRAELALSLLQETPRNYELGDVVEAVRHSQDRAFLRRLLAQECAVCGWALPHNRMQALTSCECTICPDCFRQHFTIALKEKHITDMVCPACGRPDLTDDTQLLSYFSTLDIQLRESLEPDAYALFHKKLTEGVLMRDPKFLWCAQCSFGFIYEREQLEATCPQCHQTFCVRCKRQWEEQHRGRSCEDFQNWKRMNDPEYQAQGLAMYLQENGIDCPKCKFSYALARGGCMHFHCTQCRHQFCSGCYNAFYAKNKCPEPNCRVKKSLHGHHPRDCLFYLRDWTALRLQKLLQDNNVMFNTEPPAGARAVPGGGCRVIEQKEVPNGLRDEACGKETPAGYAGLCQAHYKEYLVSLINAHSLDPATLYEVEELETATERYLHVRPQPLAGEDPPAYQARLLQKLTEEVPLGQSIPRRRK
UniProt O75792: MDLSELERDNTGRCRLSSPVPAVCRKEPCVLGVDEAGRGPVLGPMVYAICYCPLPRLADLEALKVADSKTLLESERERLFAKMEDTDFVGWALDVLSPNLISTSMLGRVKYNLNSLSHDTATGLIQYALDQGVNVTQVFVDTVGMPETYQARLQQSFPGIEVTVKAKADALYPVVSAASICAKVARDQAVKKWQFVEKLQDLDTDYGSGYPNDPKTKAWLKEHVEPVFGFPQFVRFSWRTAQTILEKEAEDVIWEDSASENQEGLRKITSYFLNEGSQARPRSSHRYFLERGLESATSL
UniProt Q01974, whole entry, looked up: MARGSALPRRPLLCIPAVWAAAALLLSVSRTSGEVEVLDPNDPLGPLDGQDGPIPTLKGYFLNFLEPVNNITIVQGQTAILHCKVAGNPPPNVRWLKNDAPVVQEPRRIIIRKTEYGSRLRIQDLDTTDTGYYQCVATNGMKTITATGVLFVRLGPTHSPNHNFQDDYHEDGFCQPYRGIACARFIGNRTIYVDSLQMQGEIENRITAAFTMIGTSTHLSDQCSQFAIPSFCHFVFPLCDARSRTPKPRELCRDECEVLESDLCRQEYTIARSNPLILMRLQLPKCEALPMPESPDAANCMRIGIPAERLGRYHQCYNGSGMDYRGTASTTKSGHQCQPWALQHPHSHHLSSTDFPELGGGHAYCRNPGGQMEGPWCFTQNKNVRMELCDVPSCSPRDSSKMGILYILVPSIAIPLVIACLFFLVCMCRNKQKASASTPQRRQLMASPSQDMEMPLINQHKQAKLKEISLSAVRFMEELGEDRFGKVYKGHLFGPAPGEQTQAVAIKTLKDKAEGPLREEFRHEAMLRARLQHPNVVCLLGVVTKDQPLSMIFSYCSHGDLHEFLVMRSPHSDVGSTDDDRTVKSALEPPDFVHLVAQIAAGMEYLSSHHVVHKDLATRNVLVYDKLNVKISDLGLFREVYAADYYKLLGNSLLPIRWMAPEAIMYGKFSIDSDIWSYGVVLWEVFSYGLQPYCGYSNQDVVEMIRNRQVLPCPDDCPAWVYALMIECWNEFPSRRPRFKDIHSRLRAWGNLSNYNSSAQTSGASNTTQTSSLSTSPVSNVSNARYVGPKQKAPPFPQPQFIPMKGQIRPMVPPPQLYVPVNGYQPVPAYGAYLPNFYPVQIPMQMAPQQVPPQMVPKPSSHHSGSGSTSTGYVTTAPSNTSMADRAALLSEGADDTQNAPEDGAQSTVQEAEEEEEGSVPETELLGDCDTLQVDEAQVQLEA
UniProt P49247: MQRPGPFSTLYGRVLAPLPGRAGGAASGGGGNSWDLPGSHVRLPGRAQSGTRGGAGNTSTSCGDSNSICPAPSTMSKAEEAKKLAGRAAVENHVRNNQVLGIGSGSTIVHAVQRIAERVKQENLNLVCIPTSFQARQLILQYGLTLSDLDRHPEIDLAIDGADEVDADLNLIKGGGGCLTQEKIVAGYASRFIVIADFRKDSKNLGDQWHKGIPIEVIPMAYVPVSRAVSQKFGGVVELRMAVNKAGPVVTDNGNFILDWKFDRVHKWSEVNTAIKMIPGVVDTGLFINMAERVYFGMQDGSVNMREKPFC

Tests used:
Experiment in all cases: log2 fold change, soluble protein after heating vs DMSO (PISA); higher = thermal stabilisation; K562 lysate, 10 uM; active = over 0.2 and 3.5 SD of the protein, either way, in both replicates (recomputed)
vemurafenib = compound: CCCS(=O)(=O)Nc1ccc(F)c(C(=O)c2c[nH]c3ncc(-c4ccc(Cl)cc4)cc23)c1F [vemurafenib]
How it was run: (§1)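 Dounce homogenisation of K562 pellets in PBS pH 7.4 with 1 mM MgCl2 produced a crude extract, used at 1 mg/mL protein. Exposure to 10 μM compound lasted 30 min, and aliquots were then heated for 3 min across 48°C-58°C, pooled and brought to 0.5% NP-40 at 4°C. The supernatant after 21,000xg for 90 min was quantified by TMTpro 16plex LC-MS/MS with channel sums equalised. Duplicate values are given as log-two fold change in thermal stability relative to solvent controls.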

[1] = compound: CCCS(=O)(=O)Nc1ccc(F)c(C(=O)c2c[nH]c3ncc(Cl)cc23)c1F
How it was run: as §1

barasertib = compound: CCN(CCCOc1ccc2c(Nc3cc(CC(=O)Nc4cccc(F)c4)[nH]n3)ncnc2c1)CCOP(=O)(O)O [barasertib]
How it was run: as §1

[2] = compound: CC[C@@H]1C(=O)N(C)c2cnc(Nc3ccc(C(=O)NC4CCN(C)CC4)cc3OC)nc2N1C1CCCC1
How it was run: as §1

volasertib = compound: CC[C@@H]1C(=O)N(C)c2cnc(Nc3ccc(C(=O)N[C@H]4CC[C@H](N5CCN(CC6CC6)CC5)CC4)cc3OC)nc2N1C(C)C [volasertib]
How it was run: as §1

[3] = compound: CCn1c(C(=O)N(C2CC2)C2CC2)cc2c3c(ncn3C)c(Nc3cc(C)n(C)n3)nc21
How it was run: as §1

[4] = compound: CCn1cc(-c2ccnc3[nH]c(-c4cccc(CN(C)C)c4)cc23)c(-c2ccc(NC(=O)N(C)C)cc2)n1
How it was run: as §1

[5] = compound: CN1CCC(CNc2ccc3ncc(-c4cccc(OC(F)(F)F)c4)n3n2)CC1
How it was run: as §1

saracatinib = compound: CN1CCN(CCOc2cc(OC3CCOCC3)c3c(Nc4c(Cl)ccc5c4OCO5)ncnc3c2)CC1 [saracatinib]
How it was run: as §1

sotrastaurin = compound: CN1CCN(c2nc(C3=C(c4c[nH]c5ccccc45)C(=O)NC3=O)c3ccccc3n2)CC1 [sotrastaurin]
How it was run: as §1

alvocidib = compound: CN1CC[C@H](c2c(O)cc(O)c3c(=O)cc(-c4ccccc4Cl)oc23)[C@H](O)C1 [alvocidib]
How it was run: as §1

Tubastatin A = compound: CN1CCc2c(c3ccccc3n2Cc2ccc(C(=O)NO)cc2)C1 [Tubastatin A]
How it was run: as §1

[6] = compound: CNC(=O)C1=CC=CC=C1NC2=NC(=NC=C2Cl)NC3=C(C=C(C=C3)N4CCOCC4)OC
How it was run: as §1

defactinib = compound: CNC(=O)c1ccc(Nc2ncc(C(F)(F)F)c(NCc3nccnc3N(C)S(C)(=O)=O)n2)cc1 [defactinib]
How it was run: as §1

[7] = compound: CNc1nc(-c2ccc3c(N)n[nH]c3c2)cc(N2C[C@@H](C(=O)NC3CCCCC3)CC[C@H]2C)n1
How it was run: as §1

encorafenib = compound: COC(=O)N[C@@H](C)CNc1nccc(-c2cn(C(C)C)nc2-c2cc(Cl)cc(NS(C)(=O)=O)c2F)n1 [encorafenib]
How it was run: as §1

[8] = compound: COC(=O)[C@H](CCSC)NC(=O)C1=C(C=C(C=C1)NC[C@H](CS)N)C2=CC=CC=C2
How it was run: as §1

alisertib = compound: COc1cc(Nc2ncc3c(n2)-c2ccc(Cl)cc2C(c2c(F)cccc2OC)=NC3)ccc1C(=O)O [alisertib]
How it was run: as §1

[9] = compound: COc1cc2nc(-c3cc(F)ccc3O)nc(N[C@@H]3CNC[C@H]3C(C)(C)O)c2cc1OC
How it was run: as §1

gefitinib = compound: COc1cc2ncnc(Nc3ccc(F)c(Cl)c3)c2cc1OCCCN1CCOCC1 [gefitinib]
How it was run: as §1

Measured: log2 fold change

RIPK1 (UniProt Q13546)
inactive: vemurafenib -0.053 | [1] 0.027 | barasertib 0.01 | [2] -0.026 | volasertib -0.066 | [3] 0.027 | [4] -0.019 | [5] -0.013 | saracatinib 0.016 | sotrastaurin -0.045 | alvocidib 0.001 | Tubastatin A -0.108 | [6] 0.044 | defactinib 0.065 | [7] 0.035 | encorafenib -0.017 | [8] 0.025 | alisertib -0.025 | [9] -0.016 | gefitinib 0.042

RNF126 (UniProt Q9BV68)
inactive: vemurafenib 0.094 | [1] 0.044 | barasertib 0.052 | [2] -0.043 | volasertib 0.009 | [3] 0.001 | [4] 0.129 | [5] -0.071 | saracatinib 0.104 | sotrastaurin -0.253 | alvocidib -0.038 | Tubastatin A 0.04 | [6] 0.046 | defactinib -0.105 | [7] 0.002 | encorafenib 0.057 | [8] -0.322 | alisertib -0.011 | [9] -0.019 | gefitinib 0.016

RIDA (UniProt P52758)
inactive: vemurafenib 0.023 | [1] 0.024 | barasertib 0.069 | [2] 0.057 | volasertib 0.023 | [3] 0.011 | [4] -0.018 | [5] -0.072 | saracatinib -0.01 | sotrastaurin 0.008 | alvocidib 0.022 | Tubastatin A -0.009 | [6] 0.032 | defactinib 0.02 | [7] -0.021 | encorafenib -0.027 | [8] -0.044 | alisertib -0.063 | [9] -0.012 | gefitinib -0.045

RMDN3 (UniProt Q96TC7)
inactive: vemurafenib 0.003 | [1] -0.003 | barasertib 0.063 | [2] 0.004 | volasertib 0 | [3] 0.024 | [4] -0.158 | [5] -0.033 | saracatinib -0.041 | sotrastaurin 0.02 | alvocidib 0.03 | Tubastatin A -0.031 | [6] 0.02 | defactinib 0.063 | [7] -0.086 | encorafenib 0.045 | [8] -0.246 | alisertib 0.055 | [9] 0.014 | gefitinib 0.002

RNF220 (UniProt Q5VTB9)
inactive: vemurafenib 0.041 | [1] 0.057 | barasertib 0.041 | [2] 0.037 | volasertib -0.046 | [3] -0.049 | [4] -0.012 | [5] 0.04 | saracatinib 0 | sotrastaurin -0.013 | alvocidib -0.007 | Tubastatin A 0.013 | [6] -0.012 | defactinib 0.029 | [7] 0.068 | encorafenib 0.015 | [8] -0.05 | alisertib -0.001 | [9] 0.006 | gefitinib -0.118

RIC8B isoform 1 (UniProt Q9NVN3)
inactive: vemurafenib 0.019 | [1] 0.04 | barasertib 0.037 | [2] -0.022 | volasertib -0.02 | [3] -0.008 | [4] 0.004 | [5] -0.031 | saracatinib 0.038 | sotrastaurin -0.006 | alvocidib -0.009 | Tubastatin A -0.106 | [6] -0.011 | defactinib 0.039 | [7] 0.144 | encorafenib 0.11 | [8] 0.114 | alisertib 0.003 | [9] -0.017 | gefitinib 0.032

RPE (UniProt Q96AT9)
inactive: vemurafenib 0.022 | [1] 0.02 | barasertib -0.072 | [2] 0.026 | volasertib 0.002 | [3] 0.014 | [4] 0.072 | [5] -0.118 | saracatinib 0.001 | sotrastaurin 0.001 | alvocidib -0.051 | Tubastatin A 0.024 | [6] -0.055 | defactinib 0.1 | [7] 0.1 | encorafenib 0.112 | [8] 0.021 | alisertib -0.045 | [9] -0.067 | gefitinib -0.049

RILP (UniProt Q96NA2)
inactive: vemurafenib -0.005 | [1] 0.036 | barasertib -0.006 | [2] 0 | volasertib 0 | [3] 0.054 | [4] -0.032 | [5] 0.044 | saracatinib 0.012 | sotrastaurin -0.025 | alvocidib 0.023 | Tubastatin A -0.001 | [6] 0.006 | defactinib 0 | [7] 0.005 | encorafenib 0.032 | [8] 0.002 | alisertib 0.009 | [9] -0.042 | gefitinib 0.033

RPL15 (UniProt P61313)
inactive: vemurafenib -0.048 | [1] -0.003 | barasertib -0.087 | [2] -0.022 | volasertib 0.006 | [3] 0.019 | [4] 0 | [5] 0.012 | saracatinib -0.034 | sotrastaurin 0.016 | alvocidib 0.034 | Tubastatin A -0.015 | [6] -0.007 | defactinib 0.018 | [7] -0.058 | encorafenib 0.011 | [8] -0.048 | alisertib 0.011 | [9] -0.005 | gefitinib 0.002

RNF20 (UniProt Q5VTR2)
inactive: vemurafenib -0.014 | [1] 0.019 | barasertib 0.004 | [2] 0.102 | volasertib -0.004 | [3] 0.038 | [4] -0.043 | [5] 0.043 | saracatinib -0.003 | sotrastaurin 0.025 | alvocidib -0.005 | Tubastatin A 0.014 | [6] -0.003 | defactinib -0.013 | [7] -0.011 | encorafenib 0.008 | [8] -0.079 | alisertib -0.004 | [9] 0.017 | gefitinib 0.033

RNF214 (UniProt Q8ND24)
inactive: vemurafenib -0.028 | [1] -0.005 | barasertib 0.008 | [2] 0.067 | volasertib 0.033 | [3] 0.001 | [4] 0.003 | [5] -0.015 | saracatinib 0.027 | sotrastaurin -0.03 | alvocidib -0.037 | Tubastatin A -0.013 | [6] -0.012 | defactinib 0.021 | [7] 0.009 | encorafenib 0.033 | [8] -0.077 | alisertib 0.001 | [9] 0.02 | gefitinib 0.022

RNF31 (UniProt Q96EP0)
inactive: vemurafenib 0.02 | [1] 0.021 | barasertib 0.021 | [2] -0.001 | volasertib -0.104 | [3] 0.006 | [4] 0.001 | [5] -0.03 | saracatinib 0 | sotrastaurin 0.013 | alvocidib -0.009 | Tubastatin A -0.018 | [6] 0.01 | defactinib -0.004 | [7] -0.035 | encorafenib -0.014 | [8] 0.015 | alisertib 0.029 | [9] 0.065 | gefitinib 0.029

RNASEH2A (UniProt O75792)
inactive: vemurafenib -0.04 | [1] -0.004 | barasertib -0.074 | [2] -0.005 | volasertib -0.013 | [3] 0.009 | [4] -0.007 | [5] 0.04 | saracatinib 0.012 | sotrastaurin 0.007 | alvocidib 0.006 | Tubastatin A 0.009 | [6] 0.008 | defactinib -0.057 | [7] -0.024 | encorafenib 0.001 | [8] 0.058 | alisertib 0.023 | [9] -0.017 | gefitinib -0.001

ROR2 (UniProt Q01974)
inactive: vemurafenib 0.006 | [1] 0.096 | barasertib 0.008 | [2] -0.028 | volasertib -0.003 | [3] -0.019 | [4] 0.028 | [5] 0.007 | saracatinib -0.021 | sotrastaurin -0.078 | alvocidib -0.006 | Tubastatin A -0.018 | [6] -0.018 | defactinib 0.011 | [7] -0.024 | encorafenib 0.045 | [8] -0.015 | alisertib 0.013 | [9] 0.026 | gefitinib 0.037

RPIA (UniProt P49247)
inactive: vemurafenib -0.007 | [1] 0.03 | barasertib -0.019 | [2] 0.025 | volasertib 0.001 | [3] -0.001 | [4] -0.216 | [5] 0.113 | saracatinib 0.016 | sotrastaurin -0.009 | alvocidib -0.014 | Tubastatin A 0.031 | [6] 0.042 | defactinib -0.014 | [7] 0.072 | encorafenib -0.018 | [8] -0.037 | alisertib -0.001 | [9] 0.006 | gefitinib 0.028

Reprinted at random: 2 records from the list.
RPIA (UniProt P49247)
inactive: vemurafenib -0.007 | [1] 0.03 | barasertib -0.019 | [2] 0.025 | volasertib 0.001 | [3] -0.001 | [4] -0.216 | [5] 0.113 | saracatinib 0.016 | sotrastaurin -0.009 | alvocidib -0.014 | Tubastatin A 0.031 | [6] 0.042 | defactinib -0.014 | [7] 0.072 | encorafenib -0.018 | [8] -0.037 | alisertib -0.001 | [9] 0.006 | gefitinib 0.028

ROR2 (UniProt Q01974)
inactive: vemurafenib 0.006 | [1] 0.096 | barasertib 0.008 | [2] -0.028 | volasertib -0.003 | [3] -0.019 | [4] 0.028 | [5] 0.007 | saracatinib -0.021 | sotrastaurin -0.078 | alvocidib -0.006 | Tubastatin A -0.018 | [6] -0.018 | defactinib 0.011 | [7] -0.024 | encorafenib 0.045 | [8] -0.015 | alisertib 0.013 | [9] 0.026 | gefitinib 0.037

(next part)

RPL10 (UniProt F8W7C6)
inactive: vemurafenib 0.122 | [1] 0.022 | barasertib -0.046 | [2] -0.079 | volasertib 0.035 | [3] 0.007 | [4] 0.034 | [5] 0.059 | saracatinib 0.019 | sotrastaurin -0.056 | alvocidib -0.089 | Tubastatin A 0.169 | [6] 0.015 | defactinib 0.003 | [7] 0.138 | encorafenib 0.048 | [8] 0.058 | alisertib 0.167 | [9] -0.028 | gefitinib 0.052
